Experimental findings from PMC5509727 are described below.

These are yes or no findings as the source states them, for the method shown. In cells and extracts the contact can be indirect. For part of these data: Binding calls can cover weak binding; strength is not graded here. Sequences can lack the tags named with a protein.

Test in all cases: co-IP; IP-Western of IFT88 with DGKδ deletion constructs (Fig. 2G); precipitating antibody and cell line not told for this panel
Experiment [1] has as its target DGKδ deletion construct: N-terminal (human).
In experiment [2] the target is DGKδ deletion construct: catalytic domain (human).
Experiment [3] concerns the target DGKδ deletion construct: C-terminal (human).

B1: FLAG-IFT88 (pCMV-IFT88-3XFLAG) (protein, UniProt Q61371 1-824)
chain: MENVHLAPETDEDDLYSGFNDYNPAYDTEELENDTGFQQAVRTSHGRRPPVTAKIPSTAVSRPIATGYGSKTSLTSSMGRPMTGTIQDGVARPMTAVRAAGFSKAALRGSAFDPLGQSRGPAPPLEAKNEDSPEEKIRQLEKKVNELVEESCIANSCGDLKLALEKAKDAGRKERVLVRQREQVTSPENINLDLTYSVLFNLASQYSANEMYAEALNTYQVIVKNKMFSNAGRLKVNMGNIYLKQRNYSKAIKFYRMALDQIPSVHKEMRIKIMQNIGITFIKTGQYSDAINSFEHIMSMAPSLKAGFNLILSCFAIGDREKMKKAFQKLIAVPLEIDEDDKYISPSDDPHTNLLIEAIKNDHLRQMERERKAMAEKYIMTAAKLIAPVIEASFAVGYNWCVEVVKASQYVELANDLEINKAITYLRQKDFNQAVDTLKMFEKKDSRVKSAAATNLSFLYYLENEFAQASSYADLAVNSDRYNPSALTNKGNTVFANGDYEKAAEFYKEALRNDSSCTEALYNIGLTYKKLNRLDEALDSFLKLHAILRNSAQVLCQIANIYELMEDPNQAIEWLMQLISVVPTDSQALSKLGELYDSEGDKSQAFQYYYESYRYFPSNIEVIEWLGAYYIDTQFCEKAIQYFERASLIQPTQVKWQLMVASCFRRSGNYQKALDTYKEIHRKFPENVECLRFLVRLCTDIGLKEVQEYATKLKRLEKMKEMREQRIKSGRDSSGGSRSKREGSAGSDSGQNNSASSKSERLSAKLRALPGTDEPYESSGNKEIDASYVDPLGPQIERPKTAAKKRIDEDDFADEELGDDLLPE
For B1, the values for the binding entry in experiment [1], in experiment [2] and in experiment [3] were “no binding”, “binds” and “binds”, respectively.
